Reference: the supplement of paper PMC9744312
Structures can show the parent of a compound that is named as a salt. Some of the results follow. Single values of this set are uncertain.

Test system: Peyronie's disease tunica albuginea primary fibroblasts
Test: cell viability (DRAQ5 nuclear stain) relative to TGF-beta1-only control; higher = more viable cells
Settings: 10 µM; TGF-beta1 10 ng/mL; 72 h

Row | SMILES | cell viability [%]
1 | CCCCc1oc2ccccc2c1C(=O)c1cc(I)c(OCCN(CC)CC)c(I)c1 [Amiodarone HCl] | 97.7
2 | Cc1cnc(C(=O)N[C@H]2CCCCC/C=C\[C@@H]3C[C@@]3(C(=O)NS(=O)(=O)C3CC3)NC(=O)[C@@H]3C[C@@H](Oc4nc5ccccc5c5ccccc45)CN3C2=O)cn1 [Paritaprevir (ABT-450)] | 106
3 | O=C(O)c1cccnc1 [Nicotinic Acid] | 99.8
4 | Cc1cccc(N(C)C(=S)Oc2ccc3ccccc3c2)c1 [Tolnaftate] | 82.6
5 | C=CCNC1=C2C[C@@H](C)C[C@H](OC)[C@H](O)[C@@H](C)/C=C(\C)[C@H](OC(N)=O)[C@@H](OC)/C=C\C=C(/C)C(=O)NC(=CC1=O)C2=O [Tanespimycin (17-AAG)] | 57
6 | CN1CCN(c2ccc3nc(-c4c(N)c5c(F)cccc5[nH]c4=O)[nH]c3c2)CC1 [Dovitinib (TKI258) Lactate] | 65.5
7 | CN1CCN(c2ccc3nc(-c4c(N)c5c(F)cccc5[nH]c4=O)[nH]c3c2)CC1 [Dovitinib (TKI-258, CHIR-258)] | 72.8
8 | O=c1[nH]c(=O)n([C@H]2C[C@H](O)[C@@H](CO)O2)cc1I [Idoxuridine] | 86.1
9 | C[C@H]1C[C@H]2[C@@H]3CCC4=CC(=O)C=C[C@]4(C)[C@H]3C(=O)C[C@]2(C)[C@@]1(O)C(=O)CO [Meprednisone] | 93.3
10 | CCC(=O)OCC(=O)[C@@]1(OC(=O)CC)[C@@H](C)C[C@H]2[C@@H]3CCC4=CC(=O)C=C[C@]4(C)[C@@]3(F)[C@@H](O)C[C@@]21C [Betamethasone Dipropionate] | 79.3
11 | O=C(O)CCCN1CCC(O[C@@H](c2ccc(Cl)cc2)c2ccccn2)CC1 [Bepotastine Besilate] | 92.9
12 | NNC(=O)c1ccncc1 [Isoniazid] | 108
13 | CN1CCCN=C1/C=C/c1cccs1 [Pyrantel Pamoate] | 99
14 | CO[C@H]1C[C@@H]2CC[C@@H](C)[C@@](O)(O2)C(=O)C(=O)N2CCCC[C@H]2C(=O)O[C@H]([C@H](C)C[C@@H]2CC[C@@H](OC(=O)C(C)(CO)CO)[C@H](OC)C2)CC(=O)[C@H](C)/C=C(\C)[C@@H](O)[C@@H](OC)C(=O)[C@H](C)C[C@H](C)/C=C/C=C/C=C/1C | 71
15 | CCC[C@@H]1C[C@@H](C(=O)N[C@@H]([C@H]2O[C@H](SC)[C@H](O)[C@@H](O)[C@H]2O)[C@@H](C)O)N(C)C1 [Lincomycin HCl] | 87.9
16 | CCC[C@@H]1C[C@@H](C(=O)N[C@@H]([C@H]2O[C@H](SC)[C@H](O)[C@@H](O)[C@H]2O)[C@@H](C)O)N(C)C1 [Lincomycin Hydrochloride Monohydrate] | 86.7

Part of the list above, set out differently:
Row	SMILES	cell viability [%]
15	CCC[C@@H]1C[C@@H](C(=O)N[C@@H]([C@H]2O[C@H](SC)[C@H](O)[C@@H](O)[C@H]2O)[C@@H](C)O)N(C)C1 [Lincomycin HCl]	87.9
16	CCC[C@@H]1C[C@@H](C(=O)N[C@@H]([C@H]2O[C@H](SC)[C@H](O)[C@@H](O)[C@H]2O)[C@@H](C)O)N(C)C1 [Lincomycin Hydrochloride Monohydrate]	86.7

Remaining list, next part.

Row | SMILES | cell viability [%]
17 | O=c1cc[nH]c(=O)[nH]1 [Uracil] | 97.6
18 | CCOC(=O)N1c2ccc(C(F)(F)F)cc2[C@@H](N(Cc2cc(C(F)(F)F)cc(C(F)(F)F)c2)C(=O)OC)C[C@H]1CC [Torcetrapib] | 92.6
19 | Cc1cccc(-c2nn3c(c2-c2ccnc4ccc(C(N)=O)cc24)CCC3)n1 | 204
20 | CC(C)c1nc(CN(C)C(=O)N[C@@H](CCN2CCOCC2)C(=O)N[C@H](CC[C@H](Cc2ccccc2)NC(=O)OCc2cncs2)Cc2ccccc2)cs1 [Cobicistat (GS-9350)] | 86.1
21 | CC12CC3CC(C)(C1)CC(N)(C3)C2 [Memantine HCl] | 83.7
22 | CN1C(C(=O)Nc2ccccn2)=C(O)c2sc(Cl)cc2S1(=O)=O [Lornoxicam] | 90.9
23 | O=C(O)c1cccc(-c2noc(-c3ccccc3F)n2)c1 [Ataluren (PTC124)] | 91.8
24 | Nc1ccc(S(=O)(=O)Nc2nccs2)cc1 [Sulfathiazole] | 87.6
25 | CC(C)[N+]1(C)[C@@H]2CC[C@H]1C[C@@H](OC(=O)C(CO)c1ccccc1)C2 (stereo partly specified) [Ipratropium Bromide] | 96.6
26 | Cc1ccc(-c2cc(C(F)(F)F)nn2-c2ccc(S(N)(=O)=O)cc2)cc1 [Celecoxib] | 88.4
27 | CN1CCc2nc(C(=O)N[C@@H]3C[C@@H](C(=O)N(C)C)CC[C@@H]3NC(=O)C(=O)Nc3ccc(Cl)cn3)sc2C1 [Edoxaban tosylate Monohydrate] | 81.4
28 | CN1CCc2nc(C(=O)N[C@@H]3C[C@@H](C(=O)N(C)C)CC[C@@H]3NC(=O)C(=O)Nc3ccc(Cl)cn3)sc2C1 [Edoxaban] | 82.2
29 | CC[C@H]1OC(=O)[C@H](C)[C@@H](O[C@H]2C[C@@](C)(OC)[C@@H](O)[C@H](C)O2)[C@H](C)[C@@H](O[C@@H]2O[C@H](C)C[C@H](N(C)C)[C@H]2O)[C@](C)(O)C[C@@H](C)CN(C)[C@H](C)[C@@H](O)[C@]1(C)O [Azithromycin] | 95.7
30 | CC[C@H]1OC(=O)[C@H](C)[C@@H](O[C@H]2C[C@@](C)(OC)[C@@H](O)[C@H](C)O2)[C@H](C)[C@@H](O[C@@H]2O[C@H](C)C[C@H](N(C)C)[C@H]2O)[C@](C)(O)C[C@@H](C)CN(C)[C@H](C)[C@@H](O)[C@]1(C)O [Azithromycin Dihydrate] | 94.4
31 | CN[C@H]1CC[C@@H](c2ccc(Cl)c(Cl)c2)c2ccccc21 [Sertraline HCl] | 97.8
